# Measurements as given in PubChem BioAssay AID504327 (National Center for Advancing Translational Sciences (NCATS), 2011).
# Amino acid sequences for entries named in this document (tags omitted).
# UniProt Q92830, whole entry, looked up: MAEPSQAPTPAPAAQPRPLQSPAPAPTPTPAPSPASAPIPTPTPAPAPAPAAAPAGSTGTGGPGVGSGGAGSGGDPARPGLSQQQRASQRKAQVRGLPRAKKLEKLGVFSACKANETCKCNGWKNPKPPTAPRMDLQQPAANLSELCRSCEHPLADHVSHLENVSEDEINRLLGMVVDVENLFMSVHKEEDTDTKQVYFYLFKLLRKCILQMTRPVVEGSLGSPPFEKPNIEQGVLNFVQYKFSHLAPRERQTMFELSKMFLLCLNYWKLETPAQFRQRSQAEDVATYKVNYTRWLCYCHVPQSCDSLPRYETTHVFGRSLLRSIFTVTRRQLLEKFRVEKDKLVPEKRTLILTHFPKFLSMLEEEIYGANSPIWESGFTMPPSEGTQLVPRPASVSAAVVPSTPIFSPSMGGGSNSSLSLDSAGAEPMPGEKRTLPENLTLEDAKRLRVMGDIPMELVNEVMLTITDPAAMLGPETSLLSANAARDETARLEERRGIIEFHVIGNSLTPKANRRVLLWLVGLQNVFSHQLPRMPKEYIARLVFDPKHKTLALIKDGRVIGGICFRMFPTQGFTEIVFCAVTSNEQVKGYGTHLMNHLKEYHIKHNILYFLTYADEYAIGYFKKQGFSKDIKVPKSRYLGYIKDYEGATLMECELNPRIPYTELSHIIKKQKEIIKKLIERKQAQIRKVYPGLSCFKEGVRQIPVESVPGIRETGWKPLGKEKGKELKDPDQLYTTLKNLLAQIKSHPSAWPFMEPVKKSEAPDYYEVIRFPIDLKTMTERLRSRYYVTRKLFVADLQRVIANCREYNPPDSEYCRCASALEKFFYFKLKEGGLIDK
# Among all 390,000 compounds or so, about 820 (0.21%) were called active. Inconclusive results, whose numbers are uncertain, are shown with a selection of clear calls. Calls follow the shape of the dose curve; as a rule, active = well fitted inhibition curve with a large enough effect; inconclusive = small, poorly fitted or top-dose-only effect, or another doubt; inactive = no such curve, though single readings can be large or run the other way. Potencies beside an inconclusive call are fits to weak or partial responses and may not hold up.
# Molecular target: Histone acetyltransferase KAT2A (Homo sapiens) (UniProt Q92830)
# Test: qHTS Assay for Inhibitors of GCN5L2
# Settings: GCN5L2 HAT assay, ThioGlo1 CoA-SH fluorescence; activity change, negative = inhibition: at 58.9 µM (top of the series) unless noted
# Method in brief: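 ThioGlo1-coupled HAT assay: 20nM GCN5L2, 70uM acetyl-CoA, 75uM H3(1-25) peptide, pH 7.5. Fluorescence read at 340/540nm at start and after 20 min at room temperature.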
# % is scaled to controls: 0 for no effect and ±100 for the full control effect; potency is read from the fitted curve at half-maximal effect.
SMILES,Potency,"activity change, negative = inhibition"
COc1ccc(NC(=O)c2cc(Cl)ccc2NC(=O)c2ccco2)c(OC)c1,inactive,–
CCOc1ccccc1NC(=O)CSc1nc2ccccc2nc1N1CCOCC1,"inconclusive: 7.08 µM [inhibitor, single point]",–
N#CCCn1c(=O)c(-c2cccs2)nc2cnc(N3CCNCC3)nc21,"inconclusive: 31.6 µM [inhibitor, single point]",–
Cn1c(C(=O)N[C@@H](C(=O)O)c2ccccc2)cc2cc(Cl)ccc21,"inconclusive: 1 µM [inhibitor, single point]",–
Cc1cc(NC(=O)c2cncc(Br)c2)ccc1NC(=O)c1cc2ccccc2o1,"inconclusive: 2 µM [inhibitor, partial curve]",–
Cc1csc(Sc2ccc(C(=O)OCC(=O)Nc3ccc(OC(F)(F)F)cc3)cc2[N+](=O)[O-])n1,inactive,–
O=C(COc1ccccc1)Nc1cc(C(F)(F)F)ccc1N1CCCC1,"inconclusive: 39.8 µM [inhibitor, single point]",–
CC12CCC(C(=O)Nc3ccncc3)(CC1O)C2(C)C (configuration not stated),"inconclusive: 39.8 µM [inhibitor, single point]",–
NC(=O)c1ccc(N2CCOCC2)nc1,"inconclusive: 39.8 µM [inhibitor, single point]",–
O=C(CSc1nc(=O)n2cc(Cl)ccc2n1)Nc1ccc2c(c1)OCCO2,–,inconclusive: -34.3% [inhibitor]
NC(=O)n1c(O)c(C(=O)c2cccs2)c2cc(Cl)ccc21,inactive,–
CC(C)(C)C(=O)[C@@H]1[C@@H]2C(=O)N(c3ccc4c(c3)OCCO4)C(=O)[C@@H]2C2c3ccccc3C=CN21 (some centres not stated),"inconclusive: 2 µM [inhibitor, partial curve, poor fit]",–
CCCN(c1ccccc1F)S(=O)(=O)c1ccc2c(c1)C(C)(C)C(=O)N2C,inactive,–
CCCCn1c(=N)n(CC(=O)c2ccco2)c2ccccc21,"inconclusive: 0.708 µM [inhibitor, full curve, poor fit]",–
Cc1[nH]c2ccc(C(=O)NCCCN3CCCCC3)cc2c1C,inactive,–
COc1cccc(-c2nc(-c3ccc(Br)o3)no2)c1,"inconclusive: 0.126 µM [inhibitor, full curve, poor fit]",–
COc1ccc(/C=N/OC/C(O)=C(\C#N)c2nc3ccccc3[nH]2)cc1,"inconclusive: 35.5 µM [inhibitor, single point]",–
NS(=O)(=O)c1ccc(N=Nc2c(=O)[nH]n3c(=O)c4c([nH]c23)CCCC4)cc1,"inconclusive: 31.6 µM [inhibitor, single point]",–
Cc1ccc(NC(=O)c2ccco2)c(NC(=O)CN2C(=O)c3ccccc3C2=O)c1,"inconclusive: 39.8 µM [inhibitor, single point]",–
CC(C)CN1CCC(=O)N([C@H](CSc2ccccc2)Cc2ccccc2)CC1,inactive,–
Cc1ccc(-n2c(O)c(C=Nc3ccccc3-c3n[nH]c(=S)[nH]c3=O)c3ccccc3c2=O)cc1C,"inconclusive: 31.6 µM [inhibitor, single point]",–
Cc1cc(Cl)c(OCCOCCN2CCN(C)CC2)c(Br)c1,"inconclusive: 6.31 µM [inhibitor, single point]",–
Cn1c(CNS(=O)(=O)c2ccc(Cl)cc2)n[nH]c1=S,"inconclusive: 3.55 µM [inhibitor, single point]",–

# 4 entries drawn at random from those above:
SMILES,Potency,"activity change, negative = inhibition"
COc1cccc(-c2nc(-c3ccc(Br)o3)no2)c1,"inconclusive: 0.126 µM [inhibitor, full curve, poor fit]",–
O=C(CSc1nc(=O)n2cc(Cl)ccc2n1)Nc1ccc2c(c1)OCCO2,–,inconclusive: -34.3% [inhibitor]
Cc1[nH]c2ccc(C(=O)NCCCN3CCCCC3)cc2c1C,inactive,–
Cc1ccc(-n2c(O)c(C=Nc3ccccc3-c3n[nH]c(=S)[nH]c3=O)c3ccccc3c2=O)cc1C,"inconclusive: 31.6 µM [inhibitor, single point]",–

# Carrying on:

SMILES,Potency,"activity change, negative = inhibition"
CCc1noc(C)c1C(=O)Oc1ccc(N(C)S(=O)(=O)c2ccc(C)c(C)c2)cc1,"inconclusive: 4.47 µM [inhibitor, single point]",–
Cc1cc2oc(=O)cc(CN3CCCCC3)c2cc1C,"inconclusive: 0.708 µM [inhibitor, full curve, poor fit]",–
Fc1ccc(-c2noc3ncnc(NCCc4ccc(Cl)cc4)c23)cc1,"inconclusive: 2.51 µM [inhibitor, single point]",–
Cc1cccc(NC(=O)CCN2C(=O)C3C4CCC(C4)C3C2=O)c1C (configuration not stated),"inconclusive: 3.55 µM [inhibitor, single point]",–
COc1ccccc1CNc1ccnc(-c2cccc(NS(C)(=O)=O)c2)n1,"inconclusive: 28.2 µM [inhibitor, partial curve]",–
COc1cccc(CNc2nccs2)c1O,"inconclusive: 39.8 µM [inhibitor, single point]",–
CCOc1ccc(-n2c(SCc3ccccc3)nc3c([nH]c4ccccc43)c2=O)cc1,inactive,–
Cc1cc(C)c2sc(NC(=O)C3CC3)nc2c1,"inconclusive: 7.08 µM [inhibitor, single point]",–
COc1cc(/C=N/NC(=O)/C(=C/c2ccccc2)CCO)ccc1O,inactive,–
COc1ccc(C(=O)NCc2nnc(SCC(=O)Nc3ccccc3OC)o2)cc1,"inconclusive: 8.91 µM [inhibitor, full curve, poor fit]",–
C/C(=N\Nc1nc(-c2ccc(C)cc2)nc2ccccc12)c1ccc([N+](=O)[O-])cc1,"inconclusive: 0.708 µM [inhibitor, single point]",–
Cc1cc2c(c(=O)n1-c1ccccc1)C1O[C@](c3ccsc3)(Cc3cc(C#N)ccc31)O2,"inconclusive: 7.08 µM [inhibitor, single point]",–
O=C(Nc1ccc2c(c1)CCCN2C(=O)c1cccs1)c1ccccc1,inactive,–
Cc1cccc(-c2nc(CNC(=O)c3ccco3)cs2)c1,"inconclusive: 1 µM [inhibitor, full curve, poor fit]",–
CC(CNC(=O)CCc1cn(Cc2ccccc2Cl)c2ccccc12)c1ccccc1 (configuration not stated),inactive,–
CNC(=O)c1ccc(S(=O)(=O)c2ccc(Cl)cc2)c(NC(C)=O)c1,"inconclusive: 10 µM [inhibitor, single point]",–
O=C1CCN(CCCc2ccccc2)CCN1CCO,"inconclusive: 6.31 µM [inhibitor, single point]",–
C=CCN1CCN(C(=O)CCc2ccccc2)CC1,"inconclusive: 0.708 µM [inhibitor, single point]",–
COc1ccc(CCCC(=O)Nc2ccccc2F)cc1,inactive,–
COc1ccc(CNC(=O)C[C@H]2C(=O)N(Cc3ccc(OC)cc3)C[C@@H]2Cc2ccccc2)cc1,"inconclusive: 7.94 µM [inhibitor, full curve, poor fit]",–
CCOc1cc(Br)cc(C2NC(=O)c3c(sc4c3CCN(C)C4)N2)c1O (configuration not stated),inactive,–
COc1ccc(CNC(=O)CSc2ncc3c(n2)-c2ccc(Cl)cc2N(Cc2ccc(F)cc2)S3(=O)=O)cc1OC,inactive,–
COc1ccc(CNC(=O)CCn2c(=O)c3cccn3c3ccc(F)cc32)cc1,inactive,–

SMILES,Potency,"activity change, negative = inhibition"
COc1ccc(C)cc1S(=O)(=O)N1CCCC(C(=O)N2CCOCC2)C1 (configuration not stated),"inconclusive: 1.58 µM [inhibitor, partial curve]",–
Cc1ccc(NC(=S)NNC(=O)c2nn(C)c(C)c2Cl)cc1,inactive,–
CCOCCCN(C(=O)c1snc(C(N)=O)c1N)C(C(=O)NC1CCCC1)c1ccc(OC)cc1 (configuration not stated),inactive,–
Cc1[nH]n(-c2ccc([N+](=O)[O-])cc2)c(=O)c1C=NCCN1CCN(C(=O)c2ccc(F)cc2)CC1,inactive,–
COC(=O)c1c(C)[nH]c(C(=O)C(C)OC(=O)C2CC(=O)N(CCc3ccccc3)C2)c1C (configuration not stated),"inconclusive: 20 µM [inhibitor, partial curve]",–
CCN(CC)C(=O)CN1C(=O)/C(=C/c2ccccc2)SC1=S,inactive,–
C[N+](C)(CCCCCC[N+](C)(C)CCCN1C(=O)c2cccc3cccc(c23)C1=O)CCCN1C(=O)c2cccc3cccc(c23)C1=O,"inconclusive: 31.6 µM [inhibitor, single point]",–
COC(=O)C1=CN(c2ccc(OC)cc2)C=C(C(=O)OC)C1c1cccc(F)c1,"inconclusive: 39.8 µM [inhibitor, single point]",–
CCOc1ncccc1-c1nc(-c2cccs2)no1,"inconclusive: 0.631 µM [inhibitor, full curve, poor fit]",–
CCCSc1ccc([C@@H]2[C@H]3C(=O)N(CC)C(=O)[C@H]3[C@]3(C(=O)OC)CCCCN23)cc1,inactive,–
O=C1c2ccccc2C(Nc2ccc3c(c2)OCO3)N1Cc1ccc2c(c1)OCO2 (configuration not stated),inactive,–
CCCCN(C(=O)c1cc(-c2ccco2)nc2ccccc12)c1c(N)n(CCCC)c(=O)[nH]c1=O,"inconclusive: 28.2 µM [inhibitor, partial curve]",–
COc1ccccc1NC(C)=[N+](C)CCNS(=O)(=O)c1ccc(Cl)cc1,"inconclusive: 28.2 µM [inhibitor, single point]",–
CC1CN(C(=S)SCCN2C(=O)CCC2=O)CC(C)O1 (configuration not stated),"inconclusive: 31.6 µM [inhibitor, single point]",–
COc1ccc(/C=C(/C#N)C(=O)Nc2ccc(O)cc2)cc1C(=O)O,"inconclusive: 39.8 µM [inhibitor, single point]",–
O=C(NC(=S)NNC(=O)c1ccco1)c1ccccc1,"inconclusive: 0.126 µM [inhibitor, full curve, poor fit]",–
O=C(Nc1ccc(N2CCN(C(=O)c3ccco3)CC2)cc1)C(c1ccccc1)c1ccccc1,"inconclusive: 0.112 µM [inhibitor, full curve, poor fit]",–
Cc1nc(N=Nc2cc([N+](=O)[O-])ccc2Cl)c(COP(=O)(O)O)c(C=O)c1O,"inconclusive: 25.1 µM [inhibitor, single point]",–
CCOc1ccc(-n2c(SCC(=O)Nc3cccc(Cl)c3)nc3c(oc4ccccc43)c2=O)cc1,inactive,–
O=C(CSc1n[nH]c(=O)n1-c1cccnc1)Nc1ccccc1,"inconclusive: 35.5 µM [inhibitor, single point]",–
Cc1cc(C)n(CCCN2CCC(C(=O)Nc3cccc(-c4cccc(F)c4)c3)CC2)n1,inactive,–
